Among the data in the supplement of paper PMC10849652 are log2 fold change values, retold here.

The chains behind the UniProt entries cited, without tags or fusion partners. Where a name states a change or a piece, a line headed by the entry shows the natural chain unless it says otherwise.
UniProt Q5XKP0: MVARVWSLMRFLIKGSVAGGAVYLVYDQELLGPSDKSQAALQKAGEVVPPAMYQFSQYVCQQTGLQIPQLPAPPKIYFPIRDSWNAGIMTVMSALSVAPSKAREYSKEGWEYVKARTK
UniProt Q8N4V1: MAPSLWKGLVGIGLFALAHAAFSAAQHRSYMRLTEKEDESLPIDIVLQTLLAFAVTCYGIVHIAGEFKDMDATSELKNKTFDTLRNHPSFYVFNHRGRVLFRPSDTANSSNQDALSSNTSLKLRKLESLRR
UniProt Q9BUB5: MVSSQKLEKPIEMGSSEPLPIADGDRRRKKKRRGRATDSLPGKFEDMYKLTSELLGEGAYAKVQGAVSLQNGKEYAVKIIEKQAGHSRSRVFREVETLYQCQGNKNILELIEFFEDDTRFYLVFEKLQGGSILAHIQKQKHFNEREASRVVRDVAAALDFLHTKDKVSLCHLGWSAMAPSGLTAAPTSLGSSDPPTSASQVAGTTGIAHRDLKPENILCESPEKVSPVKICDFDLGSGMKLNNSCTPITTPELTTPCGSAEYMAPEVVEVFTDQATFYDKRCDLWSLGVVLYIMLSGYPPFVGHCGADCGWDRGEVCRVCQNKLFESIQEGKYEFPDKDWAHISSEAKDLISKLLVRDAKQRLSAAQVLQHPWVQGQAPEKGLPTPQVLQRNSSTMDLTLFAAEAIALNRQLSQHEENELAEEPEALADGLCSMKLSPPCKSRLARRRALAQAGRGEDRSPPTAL
UniProt Q00013: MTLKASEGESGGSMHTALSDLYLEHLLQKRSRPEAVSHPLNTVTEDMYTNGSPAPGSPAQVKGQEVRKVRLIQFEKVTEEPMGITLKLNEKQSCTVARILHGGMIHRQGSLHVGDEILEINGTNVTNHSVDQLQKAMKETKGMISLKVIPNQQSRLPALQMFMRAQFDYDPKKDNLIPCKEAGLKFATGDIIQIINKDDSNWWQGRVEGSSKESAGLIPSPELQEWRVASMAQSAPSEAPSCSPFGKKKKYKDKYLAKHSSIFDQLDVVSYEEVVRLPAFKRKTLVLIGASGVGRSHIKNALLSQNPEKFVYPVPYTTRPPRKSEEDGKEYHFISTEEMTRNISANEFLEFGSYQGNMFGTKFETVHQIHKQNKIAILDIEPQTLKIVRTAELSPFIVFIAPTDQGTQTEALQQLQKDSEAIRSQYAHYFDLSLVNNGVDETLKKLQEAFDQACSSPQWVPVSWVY
UniProt Q9BWT6: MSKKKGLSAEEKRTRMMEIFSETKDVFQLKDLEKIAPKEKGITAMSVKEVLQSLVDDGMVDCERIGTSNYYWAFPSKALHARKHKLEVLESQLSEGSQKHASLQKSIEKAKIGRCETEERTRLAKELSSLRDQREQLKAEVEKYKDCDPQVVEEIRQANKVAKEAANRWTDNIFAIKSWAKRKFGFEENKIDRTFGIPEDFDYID
UniProt Q9UH92: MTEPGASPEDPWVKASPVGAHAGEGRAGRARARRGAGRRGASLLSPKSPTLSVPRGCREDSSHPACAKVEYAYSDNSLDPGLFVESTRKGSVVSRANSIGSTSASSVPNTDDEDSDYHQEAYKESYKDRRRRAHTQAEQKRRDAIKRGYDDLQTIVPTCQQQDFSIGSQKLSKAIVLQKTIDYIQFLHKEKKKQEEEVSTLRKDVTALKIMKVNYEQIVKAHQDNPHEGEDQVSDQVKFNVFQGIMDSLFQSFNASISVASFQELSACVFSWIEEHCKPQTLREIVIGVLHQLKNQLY
UniProt Q13201: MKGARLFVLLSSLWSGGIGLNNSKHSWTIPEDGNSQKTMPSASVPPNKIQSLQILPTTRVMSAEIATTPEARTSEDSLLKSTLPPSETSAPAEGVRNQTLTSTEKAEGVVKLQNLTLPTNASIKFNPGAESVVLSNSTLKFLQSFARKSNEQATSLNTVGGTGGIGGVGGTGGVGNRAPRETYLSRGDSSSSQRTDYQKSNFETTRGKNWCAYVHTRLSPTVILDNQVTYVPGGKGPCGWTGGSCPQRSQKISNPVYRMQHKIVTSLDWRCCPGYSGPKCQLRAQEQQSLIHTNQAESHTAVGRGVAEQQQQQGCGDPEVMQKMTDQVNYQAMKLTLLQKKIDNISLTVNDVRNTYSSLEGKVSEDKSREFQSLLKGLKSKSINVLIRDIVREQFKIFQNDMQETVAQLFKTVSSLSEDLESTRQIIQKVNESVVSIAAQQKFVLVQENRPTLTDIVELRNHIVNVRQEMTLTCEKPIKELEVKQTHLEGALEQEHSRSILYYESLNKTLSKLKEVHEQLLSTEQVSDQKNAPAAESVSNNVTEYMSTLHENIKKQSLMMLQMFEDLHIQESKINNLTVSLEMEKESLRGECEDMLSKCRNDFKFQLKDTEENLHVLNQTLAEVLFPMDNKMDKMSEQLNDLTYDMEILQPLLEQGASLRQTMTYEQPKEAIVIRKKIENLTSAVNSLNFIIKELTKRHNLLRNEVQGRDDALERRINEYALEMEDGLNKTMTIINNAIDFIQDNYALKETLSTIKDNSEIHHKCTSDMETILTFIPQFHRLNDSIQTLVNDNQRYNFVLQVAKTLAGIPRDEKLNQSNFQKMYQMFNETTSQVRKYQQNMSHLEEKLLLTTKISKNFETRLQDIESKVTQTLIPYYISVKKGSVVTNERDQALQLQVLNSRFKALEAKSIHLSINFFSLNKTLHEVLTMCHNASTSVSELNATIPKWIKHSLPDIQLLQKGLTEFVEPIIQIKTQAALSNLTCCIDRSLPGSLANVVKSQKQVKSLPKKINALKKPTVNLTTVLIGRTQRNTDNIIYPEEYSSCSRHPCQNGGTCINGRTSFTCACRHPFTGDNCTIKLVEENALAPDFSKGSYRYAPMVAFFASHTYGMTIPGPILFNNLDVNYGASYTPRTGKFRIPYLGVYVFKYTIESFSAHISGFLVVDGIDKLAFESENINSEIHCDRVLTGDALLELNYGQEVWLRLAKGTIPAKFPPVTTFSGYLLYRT
UniProt Q8N344: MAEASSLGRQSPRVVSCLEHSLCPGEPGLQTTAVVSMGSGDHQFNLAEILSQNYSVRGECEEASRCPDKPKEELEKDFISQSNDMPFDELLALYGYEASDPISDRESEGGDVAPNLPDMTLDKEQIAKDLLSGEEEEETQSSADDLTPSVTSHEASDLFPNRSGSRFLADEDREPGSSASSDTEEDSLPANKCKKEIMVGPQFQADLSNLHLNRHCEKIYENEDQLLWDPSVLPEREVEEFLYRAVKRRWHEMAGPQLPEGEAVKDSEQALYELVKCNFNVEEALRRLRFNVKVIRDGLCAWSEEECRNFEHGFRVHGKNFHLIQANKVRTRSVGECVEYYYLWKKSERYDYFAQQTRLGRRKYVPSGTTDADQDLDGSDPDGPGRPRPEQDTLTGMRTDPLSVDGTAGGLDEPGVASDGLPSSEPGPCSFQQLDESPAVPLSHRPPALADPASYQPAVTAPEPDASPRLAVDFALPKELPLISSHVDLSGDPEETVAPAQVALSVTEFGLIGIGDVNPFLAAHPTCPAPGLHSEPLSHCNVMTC
UniProt Q86TA1: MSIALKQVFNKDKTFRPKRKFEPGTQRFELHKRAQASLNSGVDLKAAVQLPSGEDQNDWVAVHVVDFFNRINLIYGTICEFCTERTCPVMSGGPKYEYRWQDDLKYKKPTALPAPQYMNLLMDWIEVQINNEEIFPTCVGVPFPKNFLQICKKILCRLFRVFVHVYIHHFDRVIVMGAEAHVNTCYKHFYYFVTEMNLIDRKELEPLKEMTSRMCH

Assay in all cases: log2 fold change, soluble protein after heating vs DMSO (PISA); higher = thermal stabilisation; K562 cells, 10 uM, 30 min; active = over 0.2 and 3.5 SD of the protein, either way, in both replicates (recomputed)
Compound in assay [1]: CS(=O)(=O)c1ccc(-c2cnc(N)c(C(=O)Nc3ccccc3)n2)cc1
In a few lines:
(§1)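 Quantification of soluble protein used TMTpro 16plex LC-MS/MS, with channel sums equalised. Samples were the supernatant after 21,000xg for 90 min of pooled aliquots from K562 cells (2×10^6 cells/mL) treated with 10 μM compound for 30 min, heated for 3 min over 48°C-58°C, and extracted in PBS with 0.5% NP-40 at 4°C. Values, from duplicates, describe thermal stability against control samples on a log2 fold-change scale.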

Compound in another assay: C[C@@H](Oc1cc(-c2cnn(C3CCNCC3)c2)cnc1N)c1c(Cl)ccc(F)c1Cl [crizotinib]
In a few lines:
as §1

Compound in assay [2]: C[C@@H]1COCCN1C2=NC(=NC(=C2)C3(CC3)S(=O)(=O)C)C4=C5C=CNC5=CC=C4
The method in brief:
as §1

Compound in assay [3]: C[C@H](C1=CC=C(C=C1)C(=O)NC2=C3C=CNC3=NC=C2)N
In a few lines:
as §1

Compound in a further assay: Cc1cc(Nc2cc(CN3CCOCC3)c3nc(C)c(Cc4ccc(Cl)cc4F)n3n2)n[nH]1 [gandotinib]
The method in brief: as §1

Compound in assay [4]: Cc1cc(SCc2sc(-c3ccc(C(F)(F)F)cc3)nc2C)ccc1OCC(=O)O
The method in brief: as §1

Compound in the next assay: Cc1ccc(-n2nc(C(C)(C)C)cc2NC(=O)Nc2ccc(OCCN3CCOCC3)c3ccccc23)cc1 [doramapimod]
In a few lines: as §1

Compound in a further assay: Cc1ccc(C(=O)N(CCCN)[C@@H](c2nc3cc(Cl)ccc3c(=O)n2Cc2ccccc2)C(C)C)cc1 [ispinesib]
The method in brief: as §1

Compound in another assay: Cc1ccc(NC(=O)c2ccc(CN3CC[C@H](N(C)C)C3)c(C(F)(F)F)c2)cc1Nc1nccc(-c2cncnc2)n1 [bafetinib]
In a few lines:
as §1

Compound in assay [5]: Cc1cccc(CC(=O)N2CCc3c2ccc(-c2cn(C)c4ncnc(N)c24)c3F)n1
The method in brief: as §1

Compound in the next assay: Cc1cn(-c2cc(NC(=O)c3ccc(C)c(Nc4nccc(-c5cccnc5)n4)c3)cc(C(F)(F)F)c2)cn1 [nilotinib]
The method in brief: as §1

Compound in assay [6]: Cc1nc(Nc2n[nH]c3c2CN(C(=O)N[C@H](CN(C)C)c2ccccc2)C3(C)C)c2sccc2n1
In a few lines:
as §1

Compound in a further assay: Cc1nc(Nc2ncc(C(=O)Nc3c(C)cccc3Cl)s2)cc(N2CCN(CCO)CC2)n1 [dasatinib]
In a few lines:
as §1

Compound in assay [7]: Cc1ncc(-c2ccnc(Nc3ccc(S(C)(=O)=O)cc3)n2)n1C(C)C
The method in brief:
as §1

Compound in assay [8]: Cn1cc(-c2ccc3c(c2)CCN3C(=O)Cc2cccc(C(F)(F)F)c2)c2c(N)ncnc21
In a few lines:
as §1

Compound in assay [9]: Cn1cc(-c2ccc3nnc(C(F)(F)c4ccc5ncccc5c4)n3n2)cn1
The method in brief:
as §1

Compound in a further assay: Cn1cncc1[C@@](N)(c1ccc(Cl)cc1)c1ccc2c(c1)c(-c1cccc(Cl)c1)cc(=O)n2C [tipifarnib]
The method in brief: as §1

Compound in a further assay: FC(F)(F)c1ccc(/C=C/c2nc(COc3ccc(CCCCn4ccnn4)cc3)co2)cc1 [mubritinib]
In a few lines: as §1

Compound in a further assay: C[C@H](Nc1ncnc2nc[nH]c12)c1cc2cccc(Cl)c2c(=O)n1-c1ccccc1 [duvelisib]
The method in brief:
as §1

Compound in a further assay: Cc1cc(Nc2cc(N3CCN(C)CC3)nc(Sc3ccc(NC(=O)C4CC4)cc3)n2)n[nH]1 [tozasertib]
In a few lines:
as §1

Some of the results follow.

For the target MICOS13 (UniProt Q5XKP0), the log2 fold change in assay [1] is inactive: 0.049; with crizotinib it was inactive: -0.164; in assay [2], inactive: 0.156; in [3], inactive: -0.08; with gandotinib it was inactive: -0.216; in assay [4], inactive: -0.055. Besides, the log2 fold change was inactive: -0.027 with doramapimod; active: -0.257 with ispinesib; inactive: -0.114 with bafetinib; inactive: 0.014 in assay [5]; inactive: -0.054 with nilotinib; inactive: 0.025 in assay [6]. Besides, the log2 fold change in the assay with dasatinib was inactive: -0.085; in assay [7] it was inactive: 0.001; in [8], inactive: 0.046; in [9], inactive: 0.056; in the assay with tipifarnib, inactive: -0.111; in the assay with mubritinib, inactive: 0.117.
Consider MMGT1 (UniProt Q8N4V1), for which the log2 fold change is inactive: -0.014 in assay [1]; inactive: 0.218 in the assay with crizotinib; inactive: 0.197 in assay [2]; inactive: -0.04 in assay [3]; inactive: 0.108 with duvelisib; inactive: 0.004 with tozasertib. Further, the log2 fold change in assay [4] is inactive: -0.021; in the assay with doramapimod it was inactive: -0.03; with ispinesib, inactive: 0.077; with bafetinib it was inactive: -0.028; with nilotinib it was inactive: -0.063; in assay [6], inactive: 0.12. Further, the log2 fold change with dasatinib is inactive: 0.018; in assay [7], inactive: 0.029; in assay [8], inactive: 0.158; in assay [9] it was inactive: 0.106; in the assay with tipifarnib, inactive: -0.076.
MKNK1 (UniProt Q9BUB5): the log2 fold change in [1] is inactive: 0.038; with crizotinib it was inactive: -0.082; in [2], inactive: -0.039; in [3], active: 0.31; with gandotinib it was inactive: 0.038; in assay [4] it was inactive: 0.057. Moreover, the log2 fold change with doramapimod is inactive: 0.054; with ispinesib, inactive: -0.03; in the assay with bafetinib, inactive: 0.088; in assay [5] it was inactive: 0.057; with nilotinib, inactive: 0; in assay [6] it was inactive: 0.059. The log2 fold change is inactive: -0.115 with dasatinib; inactive: -0.04 in [7]; inactive: 0.117 in assay [8]; inactive: -0.183 in assay [9]; inactive: -0.101 with tipifarnib; inactive: 0.03 in the assay with mubritinib.
Consider MPP1 (UniProt Q00013), for which the log2 fold change in assay [1] is inactive: 0.064; with crizotinib, inactive: -0.092; in assay [2] it was inactive: 0.05; in assay [3] it was inactive: 0.001; with gandotinib, inactive: -0.073; in assay [4] it was inactive: 0.061. The log2 fold change was inactive: 0.023 with doramapimod; inactive: -0.108 with ispinesib; inactive: 0.043 with bafetinib; inactive: 0.035 in assay [5]; inactive: 0.073 in the assay with nilotinib; inactive: -0.179 in [6]. In addition, the log2 fold change was inactive: -0.086 in the assay with dasatinib; inactive: -0.019 in assay [7]; inactive: 0.047 in [8]; inactive: -0.023 in assay [9]; inactive: -0.04 in the assay with tipifarnib; inactive: 0.034 in the assay with mubritinib.
With MND1 (UniProt Q9BWT6), the log2 fold change is inactive: 0 in assay [1]; inactive: -0.217 with crizotinib; inactive: 0.005 in assay [2]; inactive: 0.018 in assay [3]; inactive: -0.076 with gandotinib; inactive: -0.024 in assay [4]. For the same target, the log2 fold change is inactive: 0.009 in the assay with doramapimod; inactive: -0.184 with ispinesib; inactive: -0.168 with bafetinib; inactive: 0.042 in assay [5]; inactive: 0.032 with nilotinib; inactive: 0.003 in assay [6]. The log2 fold change in the assay with dasatinib is inactive: -0.037; in assay [7] it was inactive: -0.015; in [8], inactive: -0.056; in [9] it was inactive: -0.132; in the assay with tipifarnib it was inactive: 0.04; in the assay with mubritinib, inactive: 0.043.
In the case of MLX (UniProt Q9UH92), the log2 fold change is inactive: -0.038 in assay [1]; inactive: -0.188 with crizotinib; inactive: 0.092 in assay [2]; inactive: -0.001 in assay [3]; inactive: -0.239 with gandotinib; inactive: 0.115 in assay [4]. The log2 fold change with doramapimod is inactive: 0.03; in the assay with ispinesib it was inactive: -0.186; with bafetinib it was inactive: -0.022; in [5], inactive: 0.094; with nilotinib, inactive: -0.11; in [6] it was inactive: -0.01. Also, the log2 fold change in the assay with dasatinib was inactive: 0.008; in assay [7] it was inactive: -0.11; in assay [8] it was inactive: -0.054; in assay [9] it was inactive: -0.097; with tipifarnib it was inactive: -0.122; in the assay with mubritinib, inactive: -0.061.
As to MMRN1 (UniProt Q13201), the log2 fold change in assay [1] was inactive: 0.057; in the assay with duvelisib it was inactive: 0.163; in assay [4], inactive: 0; in the assay with ispinesib, inactive: -0.021; with dasatinib, inactive: 0.062; in assay [9] it was inactive: -0.026.
Regarding MIER2 (UniProt Q8N344), the log2 fold change in assay [2] is inactive: 0.19; in assay [3], inactive: -0.15; with duvelisib, inactive: 0.045; in assay [4], inactive: 0.035; with dasatinib, inactive: 0.012; in assay [8] it was inactive: -0.12.
On to MOB3B (UniProt Q86TA1), for which the log2 fold change in the assay with crizotinib was inactive: -0.078; in [3], inactive: 0.098; with gandotinib, inactive: 0.039; in the assay with doramapimod, inactive: 0; in the assay with bafetinib, inactive: -0.023; in assay [5], inactive: 0.034. In addition, the log2 fold change with nilotinib is inactive: -0.168; in assay [6], inactive: -0.397; in assay [7], inactive: 0.032; in assay [8], inactive: 0.222; in the assay with tipifarnib it was inactive: 0.01; with mubritinib it was inactive: 0.109.
